Measurements taken from PubChem BioAssay (NCATS).
For some of these results: This list holds what a sample rich in hits left over. Results filed as inconclusive are left out. The entries are a selection whose mix differs from that of the whole data set. Calls of active or inactive are those of the source. Calls follow the shape of the dose curve; as a rule, active = well fitted inhibition curve with a large enough effect; inconclusive = small, poorly fitted or top-dose-only effect; inactive = flat fitted curve, though single readings scatter.

What was measured:
Test in all cases: qHTS profiling for inhibitors of Plasmodium falciparum proliferation (AID 504749); also: nearly all actives have a fitted effect of over 60% in size;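 as to activity, negative = inhibition: 0% = DMSO vehicle and full inhibition = artemisinin control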
[1] = tested on: CP256; conditions: P. falciparum in erythrocytes, SYBR Green DNA, 72 h; at 28.7 µM (top of the series)
Procedure, shortened: (§1)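 Parasite proliferation within erythrocytes, 72 h exposure. Endpoint: SYBR Green I fluorescence after overnight lysis at room temperature. Controls: 0.29 uM artemisinin, DMSO.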

[2] = tested on: CP260; conditions: P. falciparum in erythrocytes, SYBR Green DNA, 72 h; at 28.7 µM (top of the series)
Procedure, shortened: as §1

[3] = tested on: CP262; conditions: P. falciparum in erythrocytes, SYBR Green DNA, 72 h; at 28.7 µM (top of the series)
Procedure, shortened: as §1

[4] = tested on: CP265; conditions: P. falciparum in erythrocytes, SYBR Green DNA, 72 h; at 28.7 µM (top of the series)
Procedure, shortened: as §1

[5] = tested on: CP266; conditions: P. falciparum in erythrocytes, SYBR Green DNA, 72 h
Procedure, shortened: as §1

[6] = tested on: CP286; conditions: P. falciparum in erythrocytes, SYBR Green DNA, 72 h; at 28.7 µM (top of the series)
Procedure, shortened: as §1

[7] = tested on: CP335; conditions: P. falciparum in erythrocytes, SYBR Green DNA, 72 h; at 28.7 µM (top of the series)
Procedure, shortened: as §1

[8] = tested on: DFO2036; conditions: P. falciparum in erythrocytes, SYBR Green DNA, 72 h; at 28.7 µM (top of the series)
Procedure, shortened: as §1

[9] = tested on: Dd2; conditions: P. falciparum in erythrocytes, SYBR Green DNA, 72 h; at 28.7 µM (top of the series)
Procedure, shortened: as §1

[10] = tested on: ECU; conditions: P. falciparum in erythrocytes, SYBR Green DNA, 72 h; at 28.7 µM (top of the series)
Procedure, shortened: as §1
Potency is read from the fitted curve at half-maximal effect.

Q: For `CC(C)(C)c1ccc(O)cc1`, which activity, negative = inhibition [1] is on record?
A: inactive: 9.24%

Q: What about the activity, negative = inhibition [2] of the same compound?
A: inactive: -6.32%

Q: What about the activity, negative = inhibition [3] of the same compound?
A: inactive: 0%

Q: What about the activity, negative = inhibition [4] of the same compound?
A: inactive: 2.54%

Q: And the Potency [5]?
A: active: 19 µM

Q: What about the activity, negative = inhibition [6] of the same compound?
A: inactive: -2.51%

Q: And the activity, negative = inhibition [7]?
A: inactive: -0.0698%

Q: And the activity, negative = inhibition [8]?
A: inactive: 1.87%

Q: What about the activity, negative = inhibition [9] of the same compound?
A: inactive: 5.48%

Q: And the activity, negative = inhibition [10]?
A: inactive: 4.86%
